Source: patent publication US20150252117A1 (Genentech, published 2015)
These are yes or no findings as the source states them, for the method shown. Some entries that bind do so weakly or less than the wild type.

The chains behind the UniProt entries cited, without tags or fusion partners. Where a name states a change or a piece, a line headed by the entry shows the natural chain unless it says otherwise.
UniProt P78504: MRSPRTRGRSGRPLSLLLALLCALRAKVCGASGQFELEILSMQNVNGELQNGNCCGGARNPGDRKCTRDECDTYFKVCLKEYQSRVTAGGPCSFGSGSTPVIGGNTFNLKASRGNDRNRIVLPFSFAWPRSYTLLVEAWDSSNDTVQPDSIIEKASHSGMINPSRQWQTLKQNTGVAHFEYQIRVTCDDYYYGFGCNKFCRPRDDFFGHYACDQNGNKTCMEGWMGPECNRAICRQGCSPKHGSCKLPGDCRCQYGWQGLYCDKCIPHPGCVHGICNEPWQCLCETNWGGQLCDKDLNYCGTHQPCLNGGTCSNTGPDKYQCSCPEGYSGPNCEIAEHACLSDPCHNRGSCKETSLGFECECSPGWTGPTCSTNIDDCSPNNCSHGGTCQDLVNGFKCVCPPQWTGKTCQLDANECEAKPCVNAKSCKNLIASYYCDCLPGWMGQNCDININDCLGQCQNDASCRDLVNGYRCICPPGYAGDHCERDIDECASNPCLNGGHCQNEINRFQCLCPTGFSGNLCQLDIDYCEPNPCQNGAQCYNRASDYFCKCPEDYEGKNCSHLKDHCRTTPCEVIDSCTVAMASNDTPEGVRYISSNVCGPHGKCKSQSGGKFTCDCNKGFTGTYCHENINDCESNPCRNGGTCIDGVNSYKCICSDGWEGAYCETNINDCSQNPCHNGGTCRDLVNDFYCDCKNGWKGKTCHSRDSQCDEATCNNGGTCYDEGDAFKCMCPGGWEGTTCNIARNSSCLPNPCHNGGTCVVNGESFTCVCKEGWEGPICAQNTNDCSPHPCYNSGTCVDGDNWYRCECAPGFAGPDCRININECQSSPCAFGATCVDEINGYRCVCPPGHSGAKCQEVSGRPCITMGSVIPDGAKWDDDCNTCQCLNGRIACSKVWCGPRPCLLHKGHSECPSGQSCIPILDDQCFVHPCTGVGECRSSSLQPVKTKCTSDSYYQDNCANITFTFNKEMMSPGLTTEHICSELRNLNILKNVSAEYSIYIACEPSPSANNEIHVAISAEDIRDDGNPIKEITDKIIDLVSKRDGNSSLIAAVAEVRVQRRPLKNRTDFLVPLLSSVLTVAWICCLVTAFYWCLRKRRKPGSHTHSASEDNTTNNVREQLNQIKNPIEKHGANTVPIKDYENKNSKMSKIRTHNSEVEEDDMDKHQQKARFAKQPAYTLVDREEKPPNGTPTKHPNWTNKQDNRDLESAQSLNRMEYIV

Tests used:
[1] = target: Human Jag1-DSL-EGF1-4 (human) (UniProt P78504); experiment: SPR (BIAcore-3000)
[2] = target: Human Jag1-DSL-EGF1-4 (human) (UniProt P78504); experiment: ELISA (screening, FIG. 8)
[3] = target: Human Jag1-DSL-EGF1-4 (human) (UniProt P78504); experiment: ELISA on human Jagged1 (Jag-1 bars), OD450 nm
[4] = target: Human Jag1-DSL-EGF1-4 (human) (UniProt P78504); experiment: SPR (BIAcore T200)
[5] = target: Human Jag1-DSL-EGF1-4 (human) (UniProt P78504); experiment: ELISA, ligand coated at 1 µg/ml, IgG titrated
[6] = target: Human Jag1-DSL-EGF1-4 (human) (UniProt P78504); experiment: ELISA, Notch ligand coated at 1 ug/ml, serial 3-fold dilutions of IgG, anti-human Fab-peroxidase, A630 [left panel, A-2]
[7] = target: T1, Human Jag2-DSL-EGF1-4 (human, UniProt Q9Y219 24-388); experiment: ELISA (screening, FIG. 8)
T1 construct: also called human Jagged2; hJag2
T1 sequence: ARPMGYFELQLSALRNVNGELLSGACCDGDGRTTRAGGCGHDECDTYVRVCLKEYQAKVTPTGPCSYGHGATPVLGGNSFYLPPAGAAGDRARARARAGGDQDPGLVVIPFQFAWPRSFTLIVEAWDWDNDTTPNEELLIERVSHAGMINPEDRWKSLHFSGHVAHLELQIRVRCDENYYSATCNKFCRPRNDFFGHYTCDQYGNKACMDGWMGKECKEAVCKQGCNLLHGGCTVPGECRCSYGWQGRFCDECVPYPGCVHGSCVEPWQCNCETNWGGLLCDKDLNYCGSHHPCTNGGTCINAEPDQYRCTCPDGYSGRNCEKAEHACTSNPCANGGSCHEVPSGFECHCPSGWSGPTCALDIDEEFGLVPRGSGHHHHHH

[8] = target: T2, Murine Jag2-DSL-EGF1-4 (mouse, UniProt Q9QYE5 27-388); experiment: ELISA (screening, FIG. 8)
T2 construct: also called murine Jagged2; Mouse Jag2
T2 sequence: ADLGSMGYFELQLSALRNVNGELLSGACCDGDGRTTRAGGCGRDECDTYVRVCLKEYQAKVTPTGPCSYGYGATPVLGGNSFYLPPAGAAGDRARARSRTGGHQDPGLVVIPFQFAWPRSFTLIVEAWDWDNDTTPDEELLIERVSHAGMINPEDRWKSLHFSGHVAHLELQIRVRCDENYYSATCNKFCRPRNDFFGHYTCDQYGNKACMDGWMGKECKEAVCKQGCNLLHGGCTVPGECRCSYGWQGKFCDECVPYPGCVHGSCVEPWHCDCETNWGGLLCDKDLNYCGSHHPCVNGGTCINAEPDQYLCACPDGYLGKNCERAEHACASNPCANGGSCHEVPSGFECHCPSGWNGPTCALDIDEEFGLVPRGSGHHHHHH

[9] = target: T1, Human Jag2-DSL-EGF1-4; experiment: ELISA on human Jagged2 (Jag-2 bars), OD450 nm
[10] = target: T3, human Delta-like 1 (DSL-EGF1-4 fragment) (human, UniProt O00548 18-368, limits assumed); experiment: SPR (BIAcore T200)
T3 construct: domain: DSL-EGF1-4; Recombinant purified Notch ligand; also called human DLL1; hDLL1
T3 sequence (looked up): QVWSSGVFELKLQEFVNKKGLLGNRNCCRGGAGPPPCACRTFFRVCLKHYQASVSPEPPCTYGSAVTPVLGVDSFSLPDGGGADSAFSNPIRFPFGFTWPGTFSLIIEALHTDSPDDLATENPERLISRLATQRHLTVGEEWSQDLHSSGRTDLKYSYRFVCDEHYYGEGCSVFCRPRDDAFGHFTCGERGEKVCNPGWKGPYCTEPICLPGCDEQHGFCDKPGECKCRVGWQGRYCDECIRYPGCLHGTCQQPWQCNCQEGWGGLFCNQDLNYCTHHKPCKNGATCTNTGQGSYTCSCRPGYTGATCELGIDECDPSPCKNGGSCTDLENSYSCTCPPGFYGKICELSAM

[11] = target: murine Delta-like 1 (DSL-EGF1-4 fragment) (mouse) (UniProt Q61483); experiment: SPR (BIAcore T200)

Measured: binding

B1: Antibody A (antibody, human IgG1, V domains shown)
VH: EVQLVESGGGLVQPGGSLRLSCAASGFTFSNYGIHWVRQAPGKGLEWVGWITPDGGYTDYADSVKGRFTISADTSKNTAYLQMNSLRAEDTAVYYCARAGSWFAYWGQGTLVTVSS
VL: DIQMTQSPSSLSASVGDRVTITCRASQDVSTAVAWYQQKPGKAPKLLIYSASFLYSGVPSRFSGSGSGTDFTLTISSLQPEDFATYYCQQSYTTPPTFGQGTKVEIK
notes: Only the variable domains are tied to the tested antibody; also called parent antibody A; anti-Jagged1 antibody A
binds: [1] | [2] | [3]

B2: Antibody A-2 (antibody, human IgG1, V domains shown)
VH: EVQLVESGGGLVQPGGSLRLSCAASGFTFSNYGIHWVRQAPGKGLEWVGWITGNGGYSDYADSVKGRFTISADTSKNTAYLQMNSLRAEDTAVYYCARAGSWFAYWGQGTLVTVSS
VL: DIQMTQSPSSLSASVGDRVTITCRASQDVSTAVAWYQQKPGKAPKLLIYSASFLYSGVPSRFSGSGSGTDFTLTISSLQPEDFATYYCQQSYTTPPTFGQGTKVEIK
notes: also called anti-Jagged1 antibody A-2
binds: [1] | [4] | [5] | [6]

B3: Antibody B (antibody, V domains shown)
VH: EVQLVESGGGLVQPGGSLRLSCAASGFTFTSYDIHWVRQAPGKGLEWVGGISPADGDTDYANSVKGRFTISADTSKNTAYLQMNSLRAEDTAVYYCARNDYDVRSVGSGMDYWGQGTLVTVSS
VL: DIQMTQSPSSLSASVGDRVTITCRASQDVSTAVAWYQQKPGKAPKLLIYSASFLYSGVPSRFSGSGSGTDFTLTISSLQPEDFATYYCQQSYTTPPTFGQGTKVEIK
notes: Anti-Jagged2 antibody, human IgG1; also called parental antibody of antibody B-3
binds: [7] | [8] | [9]

B4: Antibody B-3 (antibody, human IgG1, V domains shown)
VH: EVQLVESGGGLVQPGGSLRLSCAASGFTFTSYDIHWVRQAPGKGLEWVGGISPADGDTDYANSVKGRFTISADTSKNTAYLQMNSLRAEDTAVYYCARNDYDVRFVGSGMDYWGQGTLVTVSS
VL: DIQMTQSPSSLSASVGDRVTITCRASQDVSTAVAWYQQKPGKAPKLLIYSASFLYSGVPSRFSGSGSGTDFTLTISSLQPEDFATYYCQQSFTAPPTFGQGTKVEIK
notes: also called anti-Jagged2 antibody B-3; anti-Jag2 B-3
binds: [10] | [11]
